In publication PMC11910503, “Novel metal sites revealed by spectroscopic and structural characterization of the ferric uptake regulator from Acidithiobacillus ferrooxidans”:
Numbering of substitutions follows the chain as printed. A negative result means that nothing was seen under these conditions. Protein sequences can lack the tags named with them. For part of these data: Construct, isoform or probe ends are uncertain for at least one entry.

Columns and labels:
[1] = target: T1, AfFur WT (Acidithiobacillus ferrooxidans ATCC 23270) (UniProt B7J425); experiment: EMSA; conditions: 10 mM Tris pH 7.5, 50 mM KCl, 5 mM MgCl2, 0.1 mM MnCl2, 1 mM DTT, 2.5% glycerol, 50 ng/uL poly(dI-dC), 0.05% NP-40, 20 fmol probe, 2.9-3.9 ug protein in 20 uL, recombinant protein, protein details: N-terminal His6 (pLATE51), label: 5' biotin
T1 sequence (looked up, limits assumed): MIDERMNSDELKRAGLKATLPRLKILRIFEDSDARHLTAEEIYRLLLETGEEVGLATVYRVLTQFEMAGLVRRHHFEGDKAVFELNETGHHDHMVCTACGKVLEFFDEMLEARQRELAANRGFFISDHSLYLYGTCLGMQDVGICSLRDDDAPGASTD

[2] = target: T2, AfFur H91K (Acidithiobacillus ferrooxidans ATCC 23270) (UniProt B7J425); experiment: EMSA; conditions: + EDTA (1 mM); 10 mM Tris pH 7.5, 50 mM KCl, 5 mM MgCl2, 0.1 mM MnCl2, 1 mM DTT, 2.5% glycerol, 50 ng/uL poly(dI-dC), 0.05% NP-40; 20 fmol probe, 2.9-3.9 ug protein in 20 uL; recombinant protein; protein details: N-terminal His6 (pLATE51); label: 5' biotin
T2 sequence (looked up, limits assumed): T1 sequence (looked up, limits assumed) with H91K

Measured: binding result

GGCATCAATAAACGGGAATCATTCTCGTCTACC (double strand) [Bio-MntH-Fur-box]
no binding: [1]; apo (EDTA + DTT, 95 C) | [1]; holo + EDTA (1 mM) | [2]
